The values that follow come from publication PMC6155247.

Amino acid sequences for entries named in this document (tags omitted).
UniProt P04406: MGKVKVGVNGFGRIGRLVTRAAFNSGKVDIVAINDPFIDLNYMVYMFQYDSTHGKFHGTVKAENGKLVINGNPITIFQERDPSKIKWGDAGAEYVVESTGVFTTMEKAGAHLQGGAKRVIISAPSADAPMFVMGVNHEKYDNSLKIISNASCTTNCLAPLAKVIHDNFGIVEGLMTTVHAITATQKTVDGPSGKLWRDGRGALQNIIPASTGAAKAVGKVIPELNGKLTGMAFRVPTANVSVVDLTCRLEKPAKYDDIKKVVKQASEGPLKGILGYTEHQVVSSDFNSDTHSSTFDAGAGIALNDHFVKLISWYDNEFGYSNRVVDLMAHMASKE
UniProt P14618: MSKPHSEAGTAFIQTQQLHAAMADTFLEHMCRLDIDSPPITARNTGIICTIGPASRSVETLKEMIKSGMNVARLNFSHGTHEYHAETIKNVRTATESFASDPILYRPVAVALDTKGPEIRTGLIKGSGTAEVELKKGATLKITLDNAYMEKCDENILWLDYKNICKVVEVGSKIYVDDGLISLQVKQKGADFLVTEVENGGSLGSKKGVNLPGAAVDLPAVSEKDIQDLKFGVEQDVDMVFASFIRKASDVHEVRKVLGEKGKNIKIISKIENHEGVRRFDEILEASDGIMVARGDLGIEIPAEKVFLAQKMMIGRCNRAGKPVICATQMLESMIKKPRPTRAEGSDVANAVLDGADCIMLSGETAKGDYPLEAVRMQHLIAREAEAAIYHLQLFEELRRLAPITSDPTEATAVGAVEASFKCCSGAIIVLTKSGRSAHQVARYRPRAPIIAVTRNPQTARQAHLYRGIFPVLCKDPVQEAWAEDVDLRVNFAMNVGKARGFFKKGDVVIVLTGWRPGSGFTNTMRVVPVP

The target in test [1] is T1, voltage-dependent anion channel 2 (human (endogenous in GBM1-NSTCs)) (UniProt P45880).
T1 sequence: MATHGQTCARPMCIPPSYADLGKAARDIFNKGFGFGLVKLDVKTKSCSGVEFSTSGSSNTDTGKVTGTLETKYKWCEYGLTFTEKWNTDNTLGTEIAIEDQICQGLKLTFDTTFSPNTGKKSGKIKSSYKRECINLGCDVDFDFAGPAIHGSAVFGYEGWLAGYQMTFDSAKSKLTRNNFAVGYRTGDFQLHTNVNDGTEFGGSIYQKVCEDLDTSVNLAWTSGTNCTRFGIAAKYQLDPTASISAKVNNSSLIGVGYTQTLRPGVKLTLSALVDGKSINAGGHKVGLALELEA
Put plainly: co-IP; lysate of GBM1-NSTCs, endogenous proteins; anti-VDAC2, anti-PFKP or control IgG immobilised on AminoLink Plus coupling resin (Pierce Co-IP Kit), incubated with cell lysate overnight, eluates analysed by western blot; reciprocal precipitations for VDAC2 and PFKP. (A western blot detects proteins with antibodies after separation by electrophoresis.)

A further test addresses T2, overexpressed VDAC2 (UniProt P45880).
T2 sequence: T1 sequence
Put plainly: co-IP; lysate of GBM2-GSCs overexpressing VDAC2; anti-VDAC2 or anti-PFKP immobilised on AminoLink Plus coupling resin (Pierce Co-IP Kit), incubated with cell lysate overnight, eluates analysed by western blot; reciprocal precipitations.

No constants are given. Whether binding was seen depends on the method and setting. In cells and extracts the contact can be indirect. Some results given as binding are weak or reduced against the parent protein; the word gives no strength. For some of these results: Sequences can lack the tags named with a protein.

With “GAPDH (from UniProt P04406 1-335) (enzyme)”, in test [1], the binding entry was “no binding”. Still for that read-out and setting: as for “PKM2 (from UniProt P14618 1-531) (enzyme)”, the entry is “no binding”.

B1: platelet-type of phosphofructokinase (enzyme, UniProt Q01813 1-784)
chain: MDADDSRAPKGSLRKFLEHLSGAGKAIGVLTSGGDAQGMNAAVRAVVRMGIYVGAKVYFIYEGYQGMVDGGSNIAEADWESVSSILQVGGTIIGSARCQAFRTREGRLKAACNLLQRGITNLCVIGGDGSLTGANLFRKEWSGLLEELARNGQIDKEAVQKYAYLNVVGMVGSIDNDFCGTDMTIGTDSALHRIIEVVDAIMTTAQSHQRTFVLEVMGRHCGYLALVSALACGADWVFLPESPPEEGWEEQMCVKLSENRARKKRLNIIIVAEGAIDTQNKPITSEKIKELVVTQLGYDTRVTILGHVQRGGTPSAFDRILASRMGVEAVIALLEATPDTPACVVSLNGNHAVRLPLMECVQMTQDVQKAMDERRFQDAVRLRGRSFAGNLNTYKRLAIKLPDDQIPKTNCNVAVINVGAPAAGMNAAVRSAVRVGIADGHRMLAIYDGFDGFAKGQIKEIGWTDVGGWTGQGGSILGTKRVLPGKYLEEIATQMRTHSINALLIIGGFEAYLGLLELSAAREKHEEFCVPMVMVPATVSNNVPGSDFSIGADTALNTITDTCDRIKQSASGTKRRVFIIETMGGYCGYLANMGGLAAGADAAYIFEEPFDIRDLQSNVEHLTEKMKTTIQRGLVLRNESCSENYTTDFIYQLYSEEGKGVFDCRKNVLGHMQQGGAPSPFDRNFGTKISARAMEWITAKLKEARGRGKKFTTDDSICVLGISKRNVIFQPVAELKKQTDFEHRIPKEQWWLKLRPLMKILAKYKASYDVSDSGQLEHVQPWSV
B1: the binding entry (in test [1]; in the test with overexpressed VDAC2) was “binds” in each case.
